Test results from patent publication US20070032477A1, “Pteridine derivatives useful for making pharmaceutical compositions” (priority 2003, published 2007).
For at least one compound, name, drawing or mass did not settle the structure.

What was measured:
[1] = tested on: production of IL-1 β by PBMC in response to stimulation by LPS; assay: IL-1 β assay; format: cell-based, human; settings: LPS 1 μg/ml, 72 hours, sandwich ELISA
Method: (§1) Peripheral blood mononuclear cells (herein referred as PBMC), in response to stimulation by lipopolysaccharide (LPS), a gram-negative bacterial endotoxin, produce various […], in particular human IL-1 β. Inhibition of the activation of PBMC can therefore be measured by the level of suppression of the production of IL-1 β by PBMC in response to stimulation by LPS.
(§2) Such inhibition measurement was performed as follows: PBMC were isolated from heparinized peripheral blood by density gradient centrifugation over Lymphoprep (commercially available from Nycomed, Norway). LPS was then added to the PMBC suspension in complete medium (10^6 cells/ml) at a final concentration of 1 μg/ml. […] The supernatants were collected, then IL-1 β concentrations were measured with an anti-IL-1 β antibody in a sandwich ELISA. The calorimetric reading of the ELISA was measured by a Multiskan RC plate reader (commercially available from ThermoLabsystems, Finland) at 450 nm (reference wavelength: 690 nm). […] (also from ThermoLabsystems, Finland): a standard curve (recombinant human IL-1 β) was drawn and the amount (pg/ml) of each sample on the standard curve was determined.
The % suppression of human IL-1 β by the pteridine derivatives (drugs) of this invention was calculated using the formula: [formula]

[2] = tested on: production of TNF-α by PBMC in response to stimulation by LPS; assay: TNF-α assay; format: cell-based, human; settings: LPS 1 μg/ml, 72 hours, sandwich ELISA
Method: as §1, with “(hereinafter LPS),” for “(LPS),”, “TNF-α.” for “IL-1 β.”, “TNF-α” for “IL-1 β”
as §2, with “TNF-α” for “IL-1 β”, “with respectively” for “with”, “anti-TNF-α” for “anti-IL-1 β”, “ELISA (Duo Set ELISA human TNFα, commercially available from R&D Systems, United Kingdom).” for “ELISA.”, “TNFα)” for “IL-1 β)”, “determined. […]” for “determined.”

[3] = tested on: mixed lymphocyte reaction (PBMC with allogeneic PBMC or Eppstein-Barr Virus-transformed human B cells as stimulator cells); assay: Mixed lymphocyte reaction (MLR) assay; format: cell-based; settings: lowest concentration giving 50% suppression of the MLR; [3H]-thymidine
Method: Pteridine derivatives were first dissolved (10 mM) in dimethylsulfoxide (hereinafter referred as DMSO) and further diluted in culture medium before use for the following in vitro experiments. The commercially available culture medium consisted of RPMI-1640+10% foetal calf serum (FCS). Some pteridine derivatives described in the previous examples (as indicated in table 1) were tested in the following mixed lymphocyte reaction (MLR) assay.
Peripheral blood mononuclear cells (hereinafter referred as PBMC) were isolated from heparinized peripheral blood by density gradient centrifugation over Lymphoprep (Nycomed, Maorstua, Norway). Allogeneic PBMC or Eppstein-Barr Virus-transformed human B cells [commercially available under the trade name RPM11788 (ATCC name CCL156)] which strongly express B7-1 and B7-2 antigens were used as stimulator cells after irradiation with 30 Gy. MLR was performed in triplicate wells. After 5 days incubation at 37° C., 1 μCi [^3H]-thymidine was added to each cup. After a further 16 hours incubation, cells were harvested and counted in a […]. Inhibition of proliferation by a compound (drug) described in some of the previous examples was counted using the formula: [formula] wherein cpm is the thymidine count per minute. […]

Compound `COCCN1CCN(c2nc(N)nc3ncc(-c4ccc(OC)c(OC)c4)nc23)CC1` [Example 122, 2-amino-4-(1-(2-methoxyethyl)piperazino)-6-(3,4-dimethoxyphenyl)pteridine] has an IC50 [1] of 10 µM.
Work on `CC(=O)N1CCN(c2nc(N)nc3ncc(-c4ccccc4)nc23)CC1` [Example 55, 2-amino-4-(N-acetylpiperazin-1-yl)-6-phenyl-pteridine] yielded an IC50 [2] of 10 µM.
Compound `COc1ccc(-c2cnc3nc(N)nc(N4CCN(C(=O)[C@@H]5CCCN5)CC4)c3n2)cc1OC` [Example 62, 2-amino-4-[N-(pyrrolidin-2-(S)-yl)carbonyl-piperazin-1-yl]-6-(3,4-dimethoxy-phenyl)pteridine] has an IC50 [3] of 10 µM.
